Some of the results follow.
compound: CC1Cc2ccccc2N1C(=O)C1CCCN(C1)C(=O)CCl (mixture of isomers) [TRIM25 ligand 11 (diastereomer mixture)]; experiment: probe-labelled cysteine peptide fold change vs DMSO (competition) (log2 fold change); higher = less target engagement (more negative = stronger competition); details: 10 µM; THP-1; incubation time: 4 h
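Further: competitive chemoproteomic profiling in live THP-1 cells with an iodoacetamide desthiobiotin (IA-DTB) probe, comparing probe-labelled peptide intensities in compound-treated cells against DMSO-treated controls.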

First: COPA_P53621_655_FSLALECGNIEIALEAAK (UniProt P53621)
Second: COPS7B_Q9H9Q2_181_TLHEWCDGCEAVLLGIEQQVLR (UniProt Q9H9Q2)
The “probe-labelled cysteine peptide fold change” value of the first is higher: 0.0195 for the first, -0.0599 for the second.

Going from “COPG2_Q9UBF2_446_EAGLAHLCEFIEDCEHTVLATK (UniProt Q9UBF2)” to “CNPY3_Q9BT09_194_NHQEEDLTEFLCANHVLK (UniProt Q9BT09)”, the “probe-labelled cysteine peptide fold change” value falls from 0.0149 to -0.0334.

First: COQ5_Q5HYK3_170_VVVCDINK (UniProt Q5HYK3)
Second: COA7_Q96BR5_187_ACDLGHIWACANASR (UniProt Q96BR5)
The “probe-labelled cysteine peptide fold change” value of the first is higher: 0.0186 for the first, -0.137 for the second.

Going from “COMMD3_Q9UBI1_90_STLSTYLEDCK (UniProt Q9UBI1)” to “COG5_Q9UP83_716_LAADFAQMELAVGPFCR (UniProt Q9UP83)”, the “probe-labelled cysteine peptide fold change” value rises from 0.0342 to 0.0393.

Going from “COPG2_Q9UBF2_88_MCYLTIK (UniProt Q9UBF2)” to “COPS3_Q9UNS2_25_QLSAQGQMTQLCELINK (UniProt Q9UNS2)”, the “probe-labelled cysteine peptide fold change” value falls from -0.00142 to -0.0621.

Going from “COPA_P53621_453_VQVPNCDEIFYAGTGNLLLR (UniProt P53621)” to “COPA_P53621_1148_KILSACEK (UniProt P53621)”, the “probe-labelled cysteine peptide fold change” value falls from -0.00047 to -0.616.

Going from “COA7_Q96BR5_111_SIAACHNVGLLAHDGQVNEDGQPDLGK (UniProt Q96BR5)” to “CLUH_O75153_88_TCFSLHLDGNVLDHFSELR (UniProt O75153)”, the “probe-labelled cysteine peptide fold change” value rises from -0.0928 to 0.1.

Going from “COPG1_Q9Y678_706_SLPYNQPGTCYTLVALPK (UniProt Q9Y678)” to “CNOT1_A5YKK6_2359_LFQSVAQCCMGQK (UniProt A5YKK6)”, the “probe-labelled cysteine peptide fold change” value rises from -0.0508 to 0.232.

Going from “COPG1_Q9Y678_230_SPFAYCMMIR (UniProt Q9Y678)” to “CNOT4_O95628_56_IRTDENGLCPACR (UniProt O95628)”, the “probe-labelled cysteine peptide fold change” value falls from 0.0784 to -0.144.

Compared with “COPA_P53621_1169_NPTDAYQLNYDMHNPFDICAASYRPIYR (UniProt P53621)”, “CNPY2_Q9Y2B0_86_SEAHLTELLEEICDR (UniProt Q9Y2B0)” is lower in “probe-labelled cysteine peptide fold change” value: 0.0527 for the first, -0.0385 for the second.

First: CNN2_Q99439_164_AGQCVIGLQMGTNK (UniProt Q99439)
Second: COPB2_P35606_689_CQFGLAQECLHHAQDYGGLLLLATASGNANMVNK (UniProt P35606)
The “probe-labelled cysteine peptide fold change” value of the first is lower: -0.108 for the first, 0.0724 for the second.

Going from “CMIP_Q8IY22_363_NGCQQPCDR (UniProt Q8IY22)” to “COMMD4_Q9H0A8_107_EHAASLCR (UniProt Q9H0A8)”, the “probe-labelled cysteine peptide fold change” value rises from -0.167 to -0.02.

Compared with “CMIP_Q8IY22_455_TLGCYVEILK (UniProt Q8IY22)”, “COMT_P21964_207_YLPDTLLLEECGLLRK (UniProt P21964)” is lower in “probe-labelled cysteine peptide fold change” value: -0.036 for the first, -0.0627 for the second.

First: COPS3_Q9UNS2_149_MQMNTNQLTSIHADLCQLCLLAK (UniProt Q9UNS2)
Second: COPS6_Q7L5N1_264_EAYALCHCLPVLSTDK (UniProt Q7L5N1)
The “probe-labelled cysteine peptide fold change” value of the first is higher: 0.132 for the first, 0.117 for the second.

First: CNPY2_Q9Y2B0_28+31_SQDLHCGACR (UniProt Q9Y2B0)
Second: CMC2_Q9NRP2_14_MHPDLSPHLHTEECNVLINLLK (UniProt Q9NRP2)
The “probe-labelled cysteine peptide fold change” value of the first is lower: -0.0695 for the first, 0.0385 for the second.

Compared with “CNP_P09543_252_RPPGVLHCTTK (UniProt P09543)”, “COLGALT1_Q8NBJ5_283_QAEVQMYVCNKEEYGFLPVPLR (UniProt Q8NBJ5)” is higher in “probe-labelled cysteine peptide fold change” value: -0.0662 for the first, 0.0262 for the second.

Compared with “CNOT7_Q9UIV1_13_ICEVWACNLDEEMKK (UniProt Q9UIV1)”, COA7_Q96BR5_37_DPDGCYR (UniProt Q96BR5) is lower in “probe-labelled cysteine peptide fold change” value: 0.14 for the first, -0.045 for the second.

Compared with “COMMD9_Q9P000_47_KLLDVTCSSLSVTQEEAEELLQALHR (UniProt Q9P000)”, “CNPY3_Q9BT09_206_DTSCLAEQWSGK (UniProt Q9BT09)” is higher in “probe-labelled cysteine peptide fold change” value: -0.195 for the first, -0.123 for the second.

Source: the supplement of paper PMC12067093, “Discovery and optimisation of a covalent ligand for TRIM25 and its application to targeted protein ubiquitination” (Chemical Science, 2025)
